Earlier results, collected in US20190201538A1, “TUMOR-TARGETING PHOTOSENSITIZER-DRUG CONJUGATE, METHOD FOR PREPARING SAME AND PHARMACEUTICAL COMPOSITION FOR PREVENTING OR TREATING TUMOR CONTAINING SAME” (KOREA INSTITUTE OF SCIENCE AND TECHNOLOGY, priority 2018, published 2019).
For at least one compound, name, drawing or mass did not settle the structure. Square brackets hold non-standard residues; d marks the D form. Peptide text beside a SMILES is read from it. * marks the point of attachment. Dolaproine = CO[C@@H]([C@@H]1CCCN1)[C@@H](C)C(=O)O; Dil = CC[C@H](C)[C@H](NC)[C@@H](CC(=O)O)OC; X2 = C[C@@H](N*)[C@@H](O)c1ccccc1; NMeV = CN[C@H](C(=O)O)C(C)C

Tested on: tubulin
Settings: cited from earlier work

CC[C@H](C)[C@@H]([C@@H](CC(=O)N1CCC[C@H]1[C@H](OC)[C@@H](C)C(=O)N[C@H](C)[C@@H](O)c1ccccc1)OC)N(C)C(=O)[C@@H](NC(=O)[C@@H](NC)C(C)C)C(C)C [MMAE, monomethyl auristatin E] (H-[NMeV]V[Dil][Dolaproine]-X2)
concentration blocking the polymerization of tubulin: 10^−7-10^−10
